According to patent US20140100222A1, “Beta2-ADRENOCEPTOR AGONIST FOR THE TREATMENT OF COUGH” (BOEHRINGER INGELHEIM INTERNATIONAL GMBH, priority 2012, published 2014):
“Also recorded” adds a separate entry of the source. At least one compound was matched to its structure with a doubt left.

Tests used:
[1] = test system: citric acid induced cough in OVA sensitised guinea pigs; assay: Anti-tussive activity: citric acid induced cough in OVA sensitised guinea pigs (whole body plethysmograph); assay type: in vivo, guinea pig; conditions: up to 30 μg/kg i.t.
Procedure: Animals—Male albino Dunkin-Hartley guinea pigs (350-550 g; Charles River WIGA GmbH, Sulzfeld, Germany) were used. The animals were housed in groups of 6 in solid floor cages and allowed free access to water and standard food. The guinea pigs were kept in rooms maintained at a constant temperature (22° C.±2° C.) and humidity (60%±15%), with a 12 h light cycle. The experiments were approved by the ethical committee Regierungspräsidium Tübingen, Germany.
OVA asthma model—On days 1 and 2, the guinea pigs were immunised by subcutaneous injection of 0.5 ml per animal of a solution of ovalbumin (OVA) (40 μg/ml) and aluminium hydroxide [Al (OH)3]. […]
Cough recording—Two hours after i.t. application, the citric acid challenge was performed. […] During the challenge, airflow in the chamber was recorded by the Buxco system and analysed for the transient increase in airflow produced by cough, in which rapid inspiration is followed by rapid expiration. The system was able to distinguish coughs from other expiratory responses, and the number of coughs was counted.
Data analysis—Data from the treatment groups were compared with the vehicle group. Data are expressed as mean ±SEM of coughs produced by guinea pigs within each group during a 15 minutes citric acid aerosol exposure. […]

cough reflex = conditions: inhaled therapy in asthma, COPD or IPF; therapeutic doses; cited from earlier work

## CCc1cc2c(cc1CC)CC(NC[C@H](O)c1ccc(O)c3[nH]c(=O)ccc13)C2 [Indacaterol]
[1]
  anti-tussive effect: no antitussive effect; also recorded: no anti-tussive effect
[1]; listed as indacaterol
  anti-tussive effect: no anti-tussive activity
Cough reflex
  effect on cough reflex: enhances the cough reflex
